For this experiment, the target named is Mycobacterium tuberculosis D-alanyl-D-alanine ligase A (Tb-DdlA), His6 fusion protein (Mycobacterium tuberculosis H37Rv) (UniProt P9WP31). Description: affinity purification with mass spectrometry; only the target purified.

By UniProt entry, the sequences of proteins in these tests, tags left out.
UniProt P9WP31, whole entry: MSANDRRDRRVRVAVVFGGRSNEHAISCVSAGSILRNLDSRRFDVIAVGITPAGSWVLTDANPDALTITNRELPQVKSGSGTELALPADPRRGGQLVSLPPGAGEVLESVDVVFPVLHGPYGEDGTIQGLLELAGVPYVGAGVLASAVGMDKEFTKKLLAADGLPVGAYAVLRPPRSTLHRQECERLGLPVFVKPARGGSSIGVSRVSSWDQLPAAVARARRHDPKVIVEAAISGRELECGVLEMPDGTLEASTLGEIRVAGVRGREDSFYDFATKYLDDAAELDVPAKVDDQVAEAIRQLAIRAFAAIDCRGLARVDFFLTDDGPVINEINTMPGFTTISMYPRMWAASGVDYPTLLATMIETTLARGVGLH

Results are given in words; binding and its absence hold for the method and conditions named. Binding seen in cells or lysates may run through a third protein. A yes stands for co-enrichment or nearness to the bait. Other partners may have been found.

Here are results for three molecules from paper PMC6017538.

Take “carbon-monoxide dehydrogenase large subunit (MSMEG_0746) (from UniProt A0QQG4) (enzyme)”: the binding result was “binds”.

As to “ornithine-oxo-acid transaminase (MSMEG_1413, rocD) (from UniProt A0QSA8) (enzyme)”, the binding entry is on record as “binds”.

B1: diaminopimelate decarboxylase (MSMEG_4958, lysA) (enzyme, UniProt Q9X5M1 1-474)
chain: MNAHPAGPRHAEELHHADVPDKPQSPDEIMLLAPNVWPRNLVRGADGVVTIAGVPVTDLAAKFGTPLFVIDEDDFRTRCRDIAAAFGGGQYVHYAAKAFLCSEIARWVDEEGLSLDVATGGELAVALHAGFPASRITVHGNNKSVAELTAAVQAGVGHVVLDSEIEIERLDQIAGAAGVVQDVLVRVTVGVEAHTHEFISTAHEDQKFGLSLATGAAMNAIRRVFATDNLRLVGLHSHIGSQIFDVAGFEIAAHRVIGLLRDVVAEFGVEKTSQMSIVDLGGGLGISYLPHDDPPPMKELADKLLEIVRTESAAVGLPTPKLVVEPGRAIAGPGTITLYEVGTVKDVAVSQTAHRRYVSVDGGMSDNIRTSLYAAQYDARLVSRVSDAPPALARIVGKHCESGDIVVRDTWVSDDIAPGDLIGVAATGAYCYSMSSRYNLLCRPAVVAVADGQARLVLRRETVEDLLSLEVKGQ
Take B1: the binding result is “binds”.
